# Screening data, single-dose tests

The chains behind the UniProt entries cited, without tags or fusion partners. Residues count along the entry.
UniProt P9WPC5, whole entry: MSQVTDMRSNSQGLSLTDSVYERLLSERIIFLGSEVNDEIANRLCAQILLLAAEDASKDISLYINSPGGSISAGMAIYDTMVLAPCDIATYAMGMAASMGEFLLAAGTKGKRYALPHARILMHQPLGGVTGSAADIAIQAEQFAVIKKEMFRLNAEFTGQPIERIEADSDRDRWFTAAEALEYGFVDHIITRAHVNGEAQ
UniProt P9WPC3, whole entry partner: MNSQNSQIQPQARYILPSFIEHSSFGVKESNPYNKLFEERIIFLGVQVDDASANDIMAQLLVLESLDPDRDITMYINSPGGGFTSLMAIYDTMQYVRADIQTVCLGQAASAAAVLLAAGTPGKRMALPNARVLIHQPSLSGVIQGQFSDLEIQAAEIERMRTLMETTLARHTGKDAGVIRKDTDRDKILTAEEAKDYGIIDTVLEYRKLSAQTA
UniProt Q8IDJ8, 1-583: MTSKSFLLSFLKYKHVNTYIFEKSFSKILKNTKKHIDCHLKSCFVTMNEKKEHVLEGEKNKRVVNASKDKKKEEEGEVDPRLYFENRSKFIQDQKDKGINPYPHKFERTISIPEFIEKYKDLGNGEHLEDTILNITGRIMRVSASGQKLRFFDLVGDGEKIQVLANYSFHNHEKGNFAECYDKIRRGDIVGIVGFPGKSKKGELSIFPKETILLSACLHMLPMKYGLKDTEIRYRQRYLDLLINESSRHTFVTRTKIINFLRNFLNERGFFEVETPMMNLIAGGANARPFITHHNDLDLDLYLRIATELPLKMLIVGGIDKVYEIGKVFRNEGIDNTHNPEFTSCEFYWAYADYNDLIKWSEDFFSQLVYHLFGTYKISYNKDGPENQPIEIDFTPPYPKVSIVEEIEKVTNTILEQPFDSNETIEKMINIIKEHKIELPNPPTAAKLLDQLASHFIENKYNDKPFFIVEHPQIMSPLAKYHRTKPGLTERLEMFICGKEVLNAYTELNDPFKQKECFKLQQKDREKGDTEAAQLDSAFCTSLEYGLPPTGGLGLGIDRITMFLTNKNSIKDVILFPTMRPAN
UniProt P9WFT3, whole entry: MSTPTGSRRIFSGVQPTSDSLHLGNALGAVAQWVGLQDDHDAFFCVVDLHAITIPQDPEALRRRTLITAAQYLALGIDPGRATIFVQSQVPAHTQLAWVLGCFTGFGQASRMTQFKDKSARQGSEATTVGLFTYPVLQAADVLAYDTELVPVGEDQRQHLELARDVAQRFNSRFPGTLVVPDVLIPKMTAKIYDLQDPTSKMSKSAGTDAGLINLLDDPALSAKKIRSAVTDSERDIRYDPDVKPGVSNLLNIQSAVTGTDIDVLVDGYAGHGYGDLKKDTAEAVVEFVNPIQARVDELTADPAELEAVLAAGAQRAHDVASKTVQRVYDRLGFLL
UniProt A4I591, 1-473: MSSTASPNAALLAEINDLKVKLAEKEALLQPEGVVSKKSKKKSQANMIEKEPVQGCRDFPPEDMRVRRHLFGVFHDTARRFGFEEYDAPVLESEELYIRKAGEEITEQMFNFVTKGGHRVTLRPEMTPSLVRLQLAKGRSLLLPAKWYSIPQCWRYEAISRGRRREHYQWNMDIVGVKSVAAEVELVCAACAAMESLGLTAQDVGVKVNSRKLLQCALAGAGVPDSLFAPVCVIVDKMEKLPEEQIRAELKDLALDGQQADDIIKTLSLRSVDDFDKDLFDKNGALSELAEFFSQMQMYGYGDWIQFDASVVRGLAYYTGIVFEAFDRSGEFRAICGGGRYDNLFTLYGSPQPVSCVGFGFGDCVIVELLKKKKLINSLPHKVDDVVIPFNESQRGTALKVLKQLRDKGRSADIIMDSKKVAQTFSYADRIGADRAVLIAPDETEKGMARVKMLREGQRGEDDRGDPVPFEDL
UniProt Q4DA54, 1-478: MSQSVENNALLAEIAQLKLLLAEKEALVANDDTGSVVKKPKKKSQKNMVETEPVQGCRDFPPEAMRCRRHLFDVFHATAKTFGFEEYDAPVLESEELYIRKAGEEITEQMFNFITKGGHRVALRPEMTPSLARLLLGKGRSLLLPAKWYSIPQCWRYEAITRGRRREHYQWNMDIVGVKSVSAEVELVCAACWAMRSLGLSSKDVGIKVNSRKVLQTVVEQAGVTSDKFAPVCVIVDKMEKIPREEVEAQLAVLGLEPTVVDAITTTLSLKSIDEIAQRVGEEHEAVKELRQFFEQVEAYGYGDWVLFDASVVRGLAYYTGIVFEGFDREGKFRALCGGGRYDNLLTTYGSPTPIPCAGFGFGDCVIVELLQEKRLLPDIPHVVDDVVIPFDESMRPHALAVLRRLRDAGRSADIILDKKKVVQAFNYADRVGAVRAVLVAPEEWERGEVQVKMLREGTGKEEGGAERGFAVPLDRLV

Source: ChEMBL document CHEMBL3988442, “University of Dundee, Small-Polar-MMV Screening Library” (2021).

The filed quantity is “Percent Effect” (%). The record does not define 0% and 100%; most values in the screen are far below 50% and negative numbers occur (in some assays of this library far below -100). Compounds were drawn at random from those tested, without regard to their results. Two or more numbers in one place are separate tests of the same structure; such repeats can differ widely. A dash means the value is not listed here; it may have been measured.

ClpP1P2: 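Protease assay of ClpP1P2, read by the AMC dye that it sets free. Target: ClpP1P2, Mycobacterium tuberculosis (UniProt P9WPC5 and UniProt P9WPC3). Tested at 50 µM. Direction is inferred from only a few compounds that gave an IC50; most scored high, so higher reads as stronger inhibition. Most other retested compounds had strongly negative values. Of about 69,000 compounds tested this way, about 10 (0.015%) reached 50% or more in at least one test.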
PfKRS1: 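Enzyme assay of the cytosolic lysyl-tRNA synthetase in 384-well plates, read by luminescence. Target: Lysine-tRNA ligase, Plasmodium falciparum 3D7 (UniProt Q8IDJ8). Concentration: 30 µM. Direction is inferred from only a few compounds that gave an IC50; most scored high, so higher reads as stronger inhibition. Of about 69,000 compounds tested this way, about 49 (0.071%) reached 50% or more in at least one test.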
MtTrpRS: 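Tryptophan-tRNA ligase, Mycobacterium tuberculosis (UniProt P9WFT3). Enzyme assay of tryptophanyl-tRNA synthetase; the read-out is not stated. Tested at 10 µM. Direction is not recorded; retested compounds ran higher, which suggests that high means inhibition. Size under these conditions: about 65,000 compounds, about 64 of them at 50% or above in at least one test.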
LiHisRS: 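Histidine-tRNA ligase, Leishmania infantum (UniProt A4I591). Enzyme assay of histidyl-tRNA synthetase; the read-out is not stated. Tested at 30 µM. The record gives no direction; compounds that gave an IC50 in retests scored well above the rest, so higher reads as stronger inhibition. The assay is labelled LdHisRS but filed under L. infantum. Size under these conditions: about 69,000 compounds, about 410 of them at 50% or above in at least one test.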
TcHisRS: 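Enzyme assay of histidyl-tRNA synthetase; the read-out is not stated. Target: Histidine-tRNA ligase, Trypanosoma cruzi CL Brener (UniProt Q4DA54). Concentration: 30 µM. Higher reads as stronger inhibition (inferred: compounds with an IC50 in retests scored well above the rest). About 69,000 compounds were tested under these conditions; 0.045% (about 31) showed 50% or more at least once.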
Leishmania in macrophages: 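Cell assay of Leishmania donovani living inside macrophages; the read-out is not stated. Concentration: 30 µM. Higher reads as stronger inhibition (inferred: compounds with an IC50 in retests scored well above the rest). Size under these conditions: about 69,000 compounds, about 1,000 of them at 50% or above in at least one test.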

| structure | ClpP1P2 | PfKRS1 | MtTrpRS | LiHisRS | TcHisRS | Leishmania in macrophages |
|---|---|---|---|---|---|---|
| `CCCOCC(=O)NC1CCc2nc(C)cn2C1` (centres undefined) | -2.129% | 1.613% | -1.801% | 14.29% | 3.261% | 6.881% |
| `CN(C(=O)C1CCC1)C1CCN(c2ccccc2Cl)C1=O` (centres undefined) | 2.187% | 3.001% | 0.8158% | 22.89% | 1.22% | -35.49% |
| `Nc1nc(CCNc2ncnc3c2CCN(C(=O)C2CC2)C3)cs1` | 2.187% | -0.3057% | 0.000008% | 15% | 7.792% | -0.899% |
| `CCOC(=O)C(C)NC(=O)CCc1ccc(F)cc1` (centres undefined) | 3.365% | 0.224% | -1.874% | 15.87% | 8.081% | 12.79% |
| `Cc1nc(C)n(CC2CCCN2CC(=O)Nc2c(C)n[nH]c2C)n1` (centres undefined) | -20.69% | -1.134% | 1.456% | 7.339% | 5.294% | 20.76% |
| `CCc1nc2ccccc2c(=O)n1CC1(O)CCN(C(=O)C(C)C)CC1` | -2.188% | 0.3413% | - | 9.375% | 6.383% | -7.846% |
| `Cc1cnc(CN(C)C2CCN(CC(=O)N(C)c3nccs3)C2)o1` (centres undefined) | 21.06% | -1.173% | 1.18% | -23.6% | -3.008% | -11.91% |
| `CNC(=O)c1ccc(C(=O)N2CCCC2c2c(C)nn(C)c2C)cn1` (centres undefined) | -25.97% | 0.752% | 1.161% | 14.68% | 9.038% | 34.4% |
| `CC(C)n1[nH]c(=O)c2c1NC(=O)CC2c1ccc2ncccc2c1` (centres undefined) | 13.96% | 4.269% | 0.7519% | 7.619% | 3.306% | -7.723% |
| `O=C(O)C(F)(F)F.[H][C@@]12COC[C@H](C(=O)N3CCC(F)CC3)[C@]1([H])CN(C1CCOCC1)C2` | - | - | - | - | - | 8.621% |
| `Cc1ccc(C(=O)NCCCC2(C3OCCO3)CCOCC2)cc1C` | 2.65% | 3.889% | -2.767% | 20.69% | 5.759% | 1.188% |
| `CC(C)OCc1ccc(CNC(=O)CC(F)(F)F)cc1` | 7.507% | 6.296% | 0.6823% | 22.73% | 0% | -8.726% |
| `Cc1nc(CN2CCCCC2CCc2ccc(O)cc2)no1` (centres undefined) | -1.919% | 1.754% | 2.596% | 16.81% | 5.6% | 13.44% |
| `Cc1cc(NC(=O)CN2CCCC2c2noc(C)n2)n(C)n1` (centres undefined) | -22.11% | -0.8786% | -3.754% | 8.621% | -2.825% | 11.38% |
| `CN1CCN(CCOc2ccc(NC(=O)c3ccoc3)cc2)CC1` | -3.008% | 3.735% | -2.147% | 7.254% | 10.5% | 17.53% |
| `O=C1CSCN1Cc1nc(-c2ccc(N3CCCCC3)cc2)no1` | -10.81% | -0.5017% | -1.232% | 13.95% | 5.952% | 9.955% |
| `CCOC(=O)C1(NC(=O)CCNc2cc(C)ccc2OC)CCCCC1` | -7.942% | 5.123% | 0.8043% | 6.667% | 4.762% | 3.733% |
| `CCOc1ccc(C2SCC(=O)Nc3c2c(=O)[nH]n3C(C)C)cc1` (centres undefined) | -1.669% | 5.042% | -0.4322% | 5.517% | 7.692% | -0.8562% |
| `c1cnc(N2CCCC(c3csc(Nc4cnccn4)n3)C2)nc1` (centres undefined) | 0.4289% | 1.439% | 0.5028% | 13.42% | 3.143% | 8.405% |
| `CCCSCC(=O)N1CCCC2(CCC(=O)N(CCc3c[nH]cn3)C2)C1` (centres undefined) | 0.564% | 1.473% | -2.008% | 26.03% | 0% | -30.32% |
| `CC1(c2ccc(Br)cc2)CC(=O)N(CCC#N)C1=O` (centres undefined) | 4.151% | 1.087% | -0.5376% | 1.266% | 0.431% | -15.38% |
| `Fc1cccc(Cl)c1CNCc1ccccn1` | 14.76% | 2.549% | 3.641% | 14.61% | 7.772% | -14.06% |
| `Cc1cc(N2CCC(O)CC2)nc(C2CCCN2C)n1` (centres undefined) | 29.92% | 9.411% | -4.222% | 54.93% | 12.88% | 25.44% |
| `Cc1ccccc1C(CC(=O)N1CCc2sccc2C1)NC(N)=O` (centres undefined) | -10.03% | -0.7433% | 0.306% | 13.25% | 8.458% | -35.09% |
| `CCN(Cc1cccc(F)c1)Cn1nc(C)c2c(C)onc2c1=O` | -8.427% | 0.7852% | -2.603% | 15.79% | 2.006% | -8.154% |
| `CN(Cc1ccccn1)C(=O)c1nc(S(C)(=O)=O)n2ccccc12` | -10.83% | 1.854% | -6.952% | 15.74% | 9.091% | 35.51% |
| `[H][C@]12CN(Cc3ccc(F)cc3)C[C@@]1([H])OCCN(S(C)(=O)=O)C2` | - | - | - | - | - | -5.994% & -13.67% |
| `[H][C@@]12CCN(Cc3nccs3)C[C@]1([H])O[C@@H](C(=O)NCC1CC1)C2` | - | - | - | - | - | 12.42% |
| `COc1ccccc1NC(=O)Cc1c(C)nc2c(c1C)c(=O)[nH]n2C` | -1.96% | 6.916% | 0.7819% | 13.22% | 4.082% | 33.18% |
| `Cc1nc(NC2CCN(C(=O)C3CC3)CC2)c2cnn(C)c2n1` | 7.04% | 12.77% | 4.502% | 26.09% | 11.88% | 26.63% |
| `COc1cc(NC(=O)c2cc(C)sc2C)c(C(=O)N(C)C)cc1OC` | 3.578% | 7.288% | 1.408% | 16.04% | -1.674% | 27.57% |
| `CCOC(=O)Cn1nnnc1-c1ccccc1` | -78.59% | 9.02% | 2.164% | 13.58% | 0.4464% | -0.02485% |
| `O=S(=O)(C1CC1)N1CCC2(CC1)CC(Oc1ccccn1)CO2` (centres undefined) | -17.66% | -0.1791% | -8.186% | 7.018% | 5.464% | 8.63% |
| `CC1c2ncc(COCC3CC3)n2CCN1C(=O)c1ccn(C)n1` (centres undefined) | 6.055% | 6.169% | 2.267% | 16.36% | 9.091% | 17.19% |
| `O=C1CN(C(=O)c2cc(-c3ccco3)nc3c(Cl)cccc23)CCN1` | -0.508% | 3.705% | 11.38% | 81.67% | 9.091% | 14.11% |
| `COC(=O)COn1c(OC)nc2ccccc2c1=O` | 2.82% | 3.078% | -1.84% | 0% | 3.659% | 25.17% & 4.834% |
| `Clc1ccccc1-c1nnc(CSCCN2CCOCC2)o1` | -6.983% | 4.9% | -2.259% | 19.48% | 4.433% | 12.57% |
| `Cn1cc(CN2CCc3c(cnc(-c4ccccc4)c3C(=O)O)C2)cn1.O=C(O)C(F)(F)F.O=C(O)C(F)(F)F` | - | - | - | - | - | -1.399% |
| `Cc1c(C(=O)NCCN2C(=O)CCC2=O)sc2ccc(F)cc12` | -2.51% | 4.725% | 4.235% | 17.86% | 4.386% | 14.2% |
| `CCn1cncc1-c1nc2c([nH]1)CC(C)(C)CNC2=O` | -15.02% | 2.269% | 1.986% | 21.43% | 6.383% | 7.881% |
| `[H][C@@]12CS(=O)(=O)C[C@]1([H])N(C(=O)Cc1cccnc1)CCN2CCC` | - | - | - | - | - | -32.9% |
| `CC1(C)[C@H](Cc2cc(CN3CCCCC3)on2)C[C@@H]1NC(=O)C1CC1` | -5.065% | -0.2798% | -3.439% | 8.333% | 4.478% | 4.141% |
| `Cc1nc(O)c2nnn(C[C@H]3CCCN3C(=O)C3CCCC3)c2n1` | -3.428% | 0.8687% | - | 5.208% | 0% | -4.408% |
| `CCc1nnc2n1CCN(CC(=O)N1CCc3ccccc3C1)C2` | -10.45% | -1.475% | 2.95% | 16.07% | 3.55% | -19.57% |
| `CC1(C(=O)N2CCSCC2)CNCCO1` (centres undefined) | -5.47% | -2.164% | 7.161% | 8.633% | 3.448% | -5.704% |
| `CCCc1ccc(S(=O)(=O)NC2(CC(N)=O)CCC2)cc1` | -15.27% | 1.061% | -4.744% | 6.452% | 6.173% | 44.14% |
| `COCCC(=O)N1CCC(c2cc(O)n(C)n2)C1` (centres undefined) | -0.2695% | 4.948% | - | 15.62% | 12.77% | 7.721% |
| `O=C(c1cc(Cl)c2c(c1)OCO2)N1CCCC(n2ccnc2)C1` (centres undefined) | -7.081% | 4.917% | -0.7601% | 20.27% | -1.887% | 17.11% |

The first 3 entries again:

{"structure": "CCCOCC(=O)NC1CCc2nc(C)cn2C1", "stereo": "centres undefined", "ClpP1P2": -2.129, "PfKRS1": 1.613, "MtTrpRS": -1.801, "LiHisRS": 14.29, "TcHisRS": 3.261, "Leishmania in macrophages": 6.881}
{"structure": "CN(C(=O)C1CCC1)C1CCN(c2ccccc2Cl)C1=O", "stereo": "centres undefined", "ClpP1P2": 2.187, "PfKRS1": 3.001, "MtTrpRS": 0.8158, "LiHisRS": 22.89, "TcHisRS": 1.22, "Leishmania in macrophages": -35.49}
{"structure": "Nc1nc(CCNc2ncnc3c2CCN(C(=O)C2CC2)C3)cs1", "ClpP1P2": 2.187, "PfKRS1": -0.3057, "MtTrpRS": 0.000008, "LiHisRS": 15, "TcHisRS": 7.792, "Leishmania in macrophages": -0.899}